{"source": "paper doi:10.1101/2025.11.22.689956", "key": {"[1]": {"molecular_target": "ACTPK1 fused to the GAL4 DNA-binding domain (rice)", "experiment": "two-hybrid"}, "[2]": {"molecular_target": "Flag-tagged ACTPK1 (pCAMBIA1300-35S-Flag-ACTPK1) (rice)", "experiment": "co-IP"}, "ACTPK1-nYFP (rice)": {"molecular_target": "ACTPK1-nYFP (rice)", "experiment": "split reporter"}}, "note": "These are yes or no findings as the source states them, for the method shown. Binding can be weak; no strength is given. Sequences can lack the tags named with a protein. For part of these data: In cells and extracts the contact can be indirect."}
{"binder": "MPK3 fused to the GAL4 activation domain (enzyme, UniProt Q10N20 1-369) MDGAPVAEFRPTMTHGGRYLLYDIFGNKFEVTNKYQPPIMPIGRGAYGIVCSVMNFETREMVAIKKIANAFNNDMDAKRTLREIKLLRHLDHENIIGIRDVIPPPIPQAFNDVYIATELMDTDLHHIIRSNQELSEEHCQYFLYQILRGLKYIHSANVIHRDLKPSNLLLNANCDLKICDFGLARPSSESDMMTEYVVTRWYRAPELLLNSTDYSAAIDVWSVGCIFMELINRQPLFPGRDHMHQMRLITEVIGTPTDDELGFIRNEDARKYMRHLPQYPRRTFASMFPRVQPAALDLIERMLTFNPLQRITVEEALDHPYLERLHDIADEPICLEPFSFDFEQKALNEDQMKQLIFNEAIEMNPNIRY", "values": [{"measurement": "binding", "setting": "[1]", "result": "binds"}]}
{"binder": "GFP-tagged MPK3 (MPK3-pGWB5) (enzyme, UniProt Q10N20 1-369) MDGAPVAEFRPTMTHGGRYLLYDIFGNKFEVTNKYQPPIMPIGRGAYGIVCSVMNFETREMVAIKKIANAFNNDMDAKRTLREIKLLRHLDHENIIGIRDVIPPPIPQAFNDVYIATELMDTDLHHIIRSNQELSEEHCQYFLYQILRGLKYIHSANVIHRDLKPSNLLLNANCDLKICDFGLARPSSESDMMTEYVVTRWYRAPELLLNSTDYSAAIDVWSVGCIFMELINRQPLFPGRDHMHQMRLITEVIGTPTDDELGFIRNEDARKYMRHLPQYPRRTFASMFPRVQPAALDLIERMLTFNPLQRITVEEALDHPYLERLHDIADEPICLEPFSFDFEQKALNEDQMKQLIFNEAIEMNPNIRY", "values": [{"measurement": "binding", "setting": "[2]", "result": "binds"}]}
{"binder": "MPK3-cYFP (enzyme, UniProt Q10N20 1-369) MDGAPVAEFRPTMTHGGRYLLYDIFGNKFEVTNKYQPPIMPIGRGAYGIVCSVMNFETREMVAIKKIANAFNNDMDAKRTLREIKLLRHLDHENIIGIRDVIPPPIPQAFNDVYIATELMDTDLHHIIRSNQELSEEHCQYFLYQILRGLKYIHSANVIHRDLKPSNLLLNANCDLKICDFGLARPSSESDMMTEYVVTRWYRAPELLLNSTDYSAAIDVWSVGCIFMELINRQPLFPGRDHMHQMRLITEVIGTPTDDELGFIRNEDARKYMRHLPQYPRRTFASMFPRVQPAALDLIERMLTFNPLQRITVEEALDHPYLERLHDIADEPICLEPFSFDFEQKALNEDQMKQLIFNEAIEMNPNIRY", "values": [{"measurement": "binding", "setting": "ACTPK1-nYFP (rice)", "result": "binds"}]}
